Assay results: PubChem BioAssay AID758 (NMMLSC, 2007)
Screen size: about 190,000 compounds; about 110 (0.058%) were called active. The shares of active, inactive and inconclusive entries below differ from those in the screen.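 How the source made its calls: active means fluorescent GTP binding to Rab7 beads changed by at least 20 points from the 100% baseline, either direction, mostly lower; inconclusive means compound itself probably fluorescent, or too few beads counted; inactive means the rest.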

What follows are compounds tested on Rab7 GTPase wild type (dog), Bodipy-FL-GTP binding (assay: modulators of GTP binding to Rab7, primary screen, biochemical, wildtype, multiplex bead flow cytometry (AID 758;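 further: median green fluorescence of bound Bodipy-FL-GTP per Rab7 bead population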)). Conditions: GST-Rab7 beads, fluorescent GTP binding, at 10 µM, actives lie on both sides, untreated = 100%, excess cold GTP = 0%.

| Compound | GTP binding activity (percent of control) |
| --- | --- |
| N#CC1(C#N)CC(C=O)=C(N)C1(C#N)CC(=O)C12CC3CC(CC(C3)C1)C2 (centres undefined) | inactive: 95% |
| CC(C)N(C(=O)CS(=O)(=O)c1ccc(Cl)c(Cl)c1)C(C)C | inactive: 100% |
| Nc1cccc(S(=O)(=O)c2cccc(N)c2)c1 | inconclusive: 25% |
| CCc1sc(N2C(=O)C3C4CCC(C4=C(C)C)C3C2=O)nc1-c1ccccc1 (centres undefined) | inconclusive: 94% |
| COC(=O)c1sc2ncccc2c1OCc1ccccc1Cl | inconclusive: 91% |
| COc1ccc(CNC(=O)C2CCC(CNc3nc(=S)[nH]c4ccccc34)CC2)cc1 (centres undefined) | inactive: 101% |
| Cc1ccc(S(=O)(=O)c2c(C)cc(C)nc2Cl)c(C)c1 | inconclusive: 93% |
| O=C(OCc1cn(-c2ccc(Cl)c(Cl)c2)nn1)c1ccccc1 | inconclusive: 90% |
| Cc1ccc(/C=C/S(=O)(=O)NCc2ccc(F)cc2)cc1 | inactive: 104% |
| N#Cc1c(C(F)(F)F)cc(-c2ccc(Cl)cc2)[nH]c1=O | active: 78% |
| Clc1ccccc1CSc1nnc(/C=C/c2ccccc2)o1 | inconclusive: 90% |
| CCOc1nc(NC(=O)NS(=O)(=O)c2ccccc2F)nc(-c2ccccc2)n1 | inconclusive: 97% |
| CCC(C)c1ccc(NC(=O)CSc2nncn2N)cc1 (centres undefined) | inconclusive: 107% |
| COc1ccc(C2N(Cc3ccccc3)CC(=O)N2/N=C(\C)c2ccccc2)cc1 (centres undefined) | inactive: 95% |
| COc1ccccc1N(CC(=O)Nc1cc(C)on1)S(=O)(=O)c1ccc(Cl)cc1 | inconclusive: 90% |
| Cc1onc(-c2c(Cl)cccc2Cl)c1C(=O)NCC1CCCO1 (centres undefined) | inconclusive: 105% |
| Nc1cc(C(F)(F)F)ccc1-n1cccc1 | inactive: 94% |
| CC1(C)Cc2cccc(OCC(O)CNCc3ccccn3)c2O1 (centres undefined) | inconclusive: 102% |
| CCCNC(=O)Cn1nc(C(F)(F)F)c2c1CCCC2 | inconclusive: 98% |
| O=C(NCc1ccccc1Cl)C1CCC(CNc2nc(=S)[nH]c3ccccc23)CC1 (centres undefined) | inactive: 88% |

| Compound | GTP binding activity (percent of control) |
| --- | --- |
| COc1cc2[nH]c3c(N4CCN(c5ccc(Cl)cc5)CC4)ncnc3c2cc1OC | inconclusive: 107% |
| COc1ccc(N2CCN(C(=O)CSc3nnc4c5cc(C)ccc5n(C)c4n3)CC2)cc1 | inconclusive: 90% |
| Fc1cccc(CN2CCN(c3nc4nonc4nc3NC3CC3)CC2)c1 | inconclusive: 90% |
| CC(C)=C1SC(N2CCN(c3cccc(C(F)(F)F)c3)CC2)=NC1=O | inconclusive: 95% |
| COc1ccc(-c2cc(-c3ccc(C)cc3)nc(SCc3nnc(-c4ccccc4)o3)c2C#N)cc1OC | inactive: 101% |
| COc1cc(NC(=S)NCC2CCCO2)c(OC)cc1Cl (centres undefined) | inconclusive: 99% |
| Cc1cc([N+](=O)[O-])nn1CCC(=O)Nc1nccs1 | inactive: 100% |
| Cc1c(Nc2ccc(C=O)cc2)c(=O)n(-c2ccccc2)n1C | inactive: 95% |
| Cc1ccc(SCC(=O)Nc2ccc(F)cc2[N+](=O)[O-])cc1C | inconclusive: 102% |
| Cn1c(SCc2ccc(F)cc2)nnc1-c1cccs1 | inconclusive: 102% |
| COc1ccc(C(=O)NCc2nnc(SCC(=O)Nc3ccccc3OC)n2C)cc1 | inconclusive: 95% |
| Cc1c(C(=O)NCc2cccnc2)oc2ccc(S(=O)(=O)N3CCC4(CC3)OCCO4)cc12 | inconclusive: 98% |
| CC(C)CN(C)C(=O)CC1C(=O)NCCN1C (centres undefined) | inconclusive: 98% |
| CC1CCCC(C)N1CCCNC(=O)Cn1cc2c(n1)CCCC2 (centres undefined) | inconclusive: 103% |
| C/C(=N\O)c1ccc2c3ccccc3n(C)c2c1 | inconclusive: 100% |
| CCCCN(CCCC)C(=O)CCS(=O)(=O)c1ccc2c(c1)n(C)c(=O)c(=O)n2C | inconclusive: 102% |
| S=C(N/N=C/c1ccccc1Cl)Nc1ccccc1 | inactive: 100% |
| O=C(CSc1cccc[n+]1[O-])c1cc(Cl)ccc1Cl | inactive: 107% |
| O=C(COC(=O)Cn1cnc2ccccc21)Nc1cccc(S(=O)(=O)N2CCOCC2)c1 | inactive: 101% |
| O=C(c1ccc(COCC(F)(F)F)o1)N1CCCC1 | inactive: 100% |

| Compound | GTP binding activity (percent of control) |
| --- | --- |
| COC(=O)CN(C(=O)CSc1nnc(-c2cccc(OC)c2)o1)c1ccc(OC)cc1 | inconclusive: 100% |
| Cc1ccc(S(=O)(=O)N(C)C)cc1NC(=O)COC(=O)C1COc2ccccc2O1 (centres undefined) | inconclusive: 88% |
| O=C(C(c1ccccc1)c1ccccc1)N1CCN(Cc2ccncc2)CC1 | inconclusive: 104% |
| Cc1ccc2[nH]c3nc(SCCN4CCOCC4)nnc3c2c1 | inconclusive: 93% |
| O=C(COC(=O)CCc1c[nH]c2ccccc12)Nc1cc([N+](=O)[O-])ccc1Cl | inconclusive: 95% |
| CCS(=O)(=O)N1CCCC(C(=O)NCC2CCCO2)C1 (centres undefined) | inconclusive: 106% |
| Cc1cccc(-n2c(SCc3cc(=O)n4c(C)cccc4n3)nc3[nH]ncc3c2=O)c1 | inconclusive: 92% |
| CC(C)OC(=O)c1cccc(-c2ccc(C=O)o2)c1 | inactive: 106% |
| O=C(N/N=C/c1sc(=O)n(-c2ccccc2)c1Cl)c1ccncc1 | inconclusive: 101% |
| COc1ccc(NC(=S)NCCc2c[nH]c3ccc(OC)cc23)c(OC)c1 | inconclusive: 102% |
| COc1cccc(OCC(=O)NNC(=S)Nc2ccc(Cl)cc2Cl)c1 | inactive: 103% |
| Cc1ccc(-c2csc3nc4c5ccccc5c(NCCCN5CCOCC5)nn4c(=O)c23)cc1 | inactive: 95% |
| Cc1nc2sccn2c1-c1nc(-c2cc3ccccc3o2)cs1 | inactive: 87% |
| CCn1c(COc2ccccc2)nnc1SCC(=O)c1cccc([N+](=O)[O-])c1 | inconclusive: 96% |
| CCOc1ccc2c(c1)sc(=NC(=O)C1CC1)n2C | inconclusive: 94% |
| O=C(c1cccnc1)N1C2C=CC(C2)C1(C(F)(F)F)C(F)(F)F (centres undefined) | inconclusive: 93% |
| COc1cc(/C=C2/NC(=O)NC2=O)cc(Br)c1OCc1ccc(C(=O)O)cc1 | inconclusive: 95% |
| COc1ccc(N2CCN(c3ccc(Cl)nn3)CC2)cc1 | inactive: 104% |
| COc1ccc(/C=C/c2nc3ccccc3n2C)cc1 | inconclusive: 96% |

Four consecutive records from above, for reference:

| Compound | GTP binding activity (percent of control) |
| --- | --- |
| Cc1ccc2[nH]c3nc(SCCN4CCOCC4)nnc3c2c1 | inconclusive: 93% |
| O=C(COC(=O)CCc1c[nH]c2ccccc12)Nc1cc([N+](=O)[O-])ccc1Cl | inconclusive: 95% |
| CCS(=O)(=O)N1CCCC(C(=O)NCC2CCCO2)C1 (centres undefined) | inconclusive: 106% |
| Cc1cccc(-n2c(SCc3cc(=O)n4c(C)cccc4n3)nc3[nH]ncc3c2=O)c1 | inconclusive: 92% |
